This series concerns TCF-4 (Jurkat nuclear extract) + beta-catenin (Jurkat nuclear extract). Put plainly: EMSA. The following applies: 10 mM Tris-HCl pH 7.5, 50 mM NaCl, 1 mM MgCl2, 0.5 mM EDTA, 0.5 mM DTT, 4% glycerol, 50 ug/ml poly(dI-dC), 8 ug nuclear extract, room temperature, 30 min, protein in an extract, label: 32P 5'-end.

Chains of the proteins cited; added tags and fusions are not shown. Chains listed by the source or under a name are the forms on record and can include a tag or linker.
TCF-4 (Jurkat nuclear extract) + beta-catenin (Jurkat nuclear extract), one chain, as listed by the source, chain 1 of 2: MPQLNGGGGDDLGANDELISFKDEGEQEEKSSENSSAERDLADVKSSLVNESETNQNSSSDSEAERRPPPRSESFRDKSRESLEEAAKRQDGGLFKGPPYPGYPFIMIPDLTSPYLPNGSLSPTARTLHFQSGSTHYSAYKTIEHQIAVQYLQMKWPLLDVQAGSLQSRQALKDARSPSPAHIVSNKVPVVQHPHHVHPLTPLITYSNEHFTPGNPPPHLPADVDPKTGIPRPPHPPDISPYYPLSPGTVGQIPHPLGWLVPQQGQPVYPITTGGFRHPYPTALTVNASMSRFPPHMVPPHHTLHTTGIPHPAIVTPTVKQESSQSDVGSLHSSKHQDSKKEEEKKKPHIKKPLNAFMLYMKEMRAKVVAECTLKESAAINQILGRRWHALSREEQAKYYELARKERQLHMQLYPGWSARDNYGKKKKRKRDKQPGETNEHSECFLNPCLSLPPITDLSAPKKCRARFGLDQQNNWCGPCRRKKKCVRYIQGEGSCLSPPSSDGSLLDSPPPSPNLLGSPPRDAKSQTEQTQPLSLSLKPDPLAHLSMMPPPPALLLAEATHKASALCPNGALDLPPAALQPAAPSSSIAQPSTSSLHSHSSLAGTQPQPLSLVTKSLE
TCF-4 (Jurkat nuclear extract) + beta-catenin (Jurkat nuclear extract), one chain, as listed by the source, chain 2 of 2: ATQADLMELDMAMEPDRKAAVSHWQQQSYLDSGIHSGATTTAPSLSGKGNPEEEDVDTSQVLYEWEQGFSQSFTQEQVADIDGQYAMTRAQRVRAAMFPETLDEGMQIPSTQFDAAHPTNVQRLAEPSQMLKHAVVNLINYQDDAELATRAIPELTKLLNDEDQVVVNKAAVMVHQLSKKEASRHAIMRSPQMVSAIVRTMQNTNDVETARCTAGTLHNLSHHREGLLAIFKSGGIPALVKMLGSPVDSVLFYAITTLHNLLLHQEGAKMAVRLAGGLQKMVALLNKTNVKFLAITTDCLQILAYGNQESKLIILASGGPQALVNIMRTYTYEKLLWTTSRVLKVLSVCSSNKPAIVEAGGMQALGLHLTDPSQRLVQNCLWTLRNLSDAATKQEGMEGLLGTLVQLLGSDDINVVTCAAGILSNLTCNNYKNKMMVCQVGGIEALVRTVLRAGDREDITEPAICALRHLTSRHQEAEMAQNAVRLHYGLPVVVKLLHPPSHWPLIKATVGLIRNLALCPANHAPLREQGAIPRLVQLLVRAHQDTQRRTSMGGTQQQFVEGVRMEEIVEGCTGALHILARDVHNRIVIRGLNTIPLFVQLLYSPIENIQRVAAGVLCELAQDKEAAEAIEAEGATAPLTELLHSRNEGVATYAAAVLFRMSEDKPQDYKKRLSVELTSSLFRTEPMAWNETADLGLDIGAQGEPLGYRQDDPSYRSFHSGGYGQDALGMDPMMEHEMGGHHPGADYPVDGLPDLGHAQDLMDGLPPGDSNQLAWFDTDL

The exact form of at least one protein or probe is not confirmed. Results from cells or extracts need not show a direct contact. A negative result means that nothing was seen under these conditions. The comparison behind a weaker result is the experiment's own reference, which may not be listed here.

“GCGAAATCCAAACCAGCT (double strand) [mTBE1]”: the binding result was “no binding”.

For the sequence “GTGGGTGTTTGTTTGAGA (double strand) [mTBE2 (-205G allele)]”, the binding result (almost lost binding) is on record as “binds more weakly”.

Values taken from article PMC3191176.
